Measurements published in PMC3369903.
No constants are given. Whether binding was seen depends on the method and setting. In cells and extracts the contact can be indirect. Some binding calls cover weakened binding; strength is not graded here.

Sequences of proteins named here, by UniProt entry; tags and fusion partners are left off. Residues count along the entry.
UniProt P27512, residues 20-289: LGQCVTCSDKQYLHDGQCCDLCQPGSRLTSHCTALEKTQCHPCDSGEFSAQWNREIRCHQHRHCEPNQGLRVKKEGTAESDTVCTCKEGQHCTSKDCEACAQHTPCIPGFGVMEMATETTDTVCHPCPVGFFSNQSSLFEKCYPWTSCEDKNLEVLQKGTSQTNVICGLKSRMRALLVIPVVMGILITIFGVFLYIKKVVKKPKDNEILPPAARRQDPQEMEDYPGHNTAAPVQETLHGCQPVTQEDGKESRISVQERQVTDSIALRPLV
UniProt O08573: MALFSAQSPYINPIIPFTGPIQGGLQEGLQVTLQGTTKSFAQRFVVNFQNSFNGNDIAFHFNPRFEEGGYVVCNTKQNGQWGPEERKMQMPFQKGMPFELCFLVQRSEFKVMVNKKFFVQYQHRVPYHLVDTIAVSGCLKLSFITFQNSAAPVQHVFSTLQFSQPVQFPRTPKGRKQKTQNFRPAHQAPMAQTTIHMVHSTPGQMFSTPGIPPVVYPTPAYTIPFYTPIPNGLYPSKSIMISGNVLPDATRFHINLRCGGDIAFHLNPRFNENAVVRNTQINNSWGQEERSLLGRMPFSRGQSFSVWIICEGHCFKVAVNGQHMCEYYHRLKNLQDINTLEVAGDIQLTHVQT

How the values were obtained:
[1] = biological target: Recombinant human galectin-9 (human) (UniProt O00182); assay: pull-down; recombinant galectin-9 protein conjugated directly to magnetic beads, incubated with lysates of CD4loCD40+ T cells (isotype or CD40 stimulated overnight); mock treated beads as control; room temperature; western blot for CD40; only the target purified
[2] = biological target: CD40 (mouse (endogenous in NOD and BALB/c splenic CD4loCD40+ T cells)) (UniProt P27512); assay: co-IP; CD40 immunoprecipitated with FGK45-conjugated magnetic beads from lysates of NOD CD4loCD40+ T cells (CD40 stimulated for 0, 30 minutes, 3 hours or overnight); lysis buffer 20 mM Tris-HCl pH 7.5, 2 mM EDTA, 137 mM NaCl, 0.5% Triton X-100; room temperature; western blot for galectin-9
[3] = biological target: CD40 (mouse (endogenous in NOD and BALB/c splenic CD4loCD40+ T cells)) (UniProt P27512); assay: co-IP; CD40 immunoprecipitated with FGK45-conjugated magnetic beads from lysates of BALB/c CD4loCD40+ T cells (control mice, or mice injected with agonistic CD40 antibodies; CD40 stimulated for 0, 30 minutes, 3 hours or overnight); lysis buffer 20 mM Tris-HCl pH 7.5, 2 mM EDTA, 137 mM NaCl, 0.5% Triton X-100; room temperature; western blot for galectin-9

binding [1]	binding [2]	binding [3]	Substance
binds	–	–	CD40 (from UniProt P27512 20-289) (receptor)
–	binds weakly	binds	galectin-9 (endogenous, mouse) (from UniProt O08573 1-353)
